PubChem BioAssay AID1259425 – University of Nebraska Medical Center, 2018
Test: 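Find knockdowns that reproduce the gene expression pattern seen when KSR1 is lost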 (primary screen). Cell system: HCT116 human colon cancer cells. Reagent: siRNA pool against human genes, 50 nM siRNA. Measurement: 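After 50 nM siRNA pool, branched-DNA assay measures six marker transcripts per well, minus blank, normalised to the geometric mean of two housekeeping transcripts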. Reading the numbers: BNIP3L mRNA: higher = more BNIP3L transcript after knockdown.
Here is an unselected part of about 14,000 reagents. Further read-outs or replicates are left out here. Not given: the time to read-out.

Depletion of ATAD2B gave: BNIP3L mRNA, set 1 = 0.0557.
NUP50 gave BNIP3L mRNA, set 1 = 0.0628.
NOVA2 scored BNIP3L mRNA, set 1 = 0.173.
After knock-down of MSH5 the results were BNIP3L mRNA, set 1 = 0.0801.
With knock-down of HMHB1, the record shows BNIP3L mRNA, set 1 = 0.207.
Silencing of RHCE resulted in: BNIP3L mRNA, set 1 = 0.159.
ARFGEF2 scored BNIP3L mRNA, set 1 = 0.117.
Knock-down of TMEM175 resulted in: BNIP3L mRNA, set 1 = 0.128.
After knock-down of NUFIP2, the screen gave BNIP3L mRNA, set 1 = 0.194.
TM2D2 gave BNIP3L mRNA, set 1 = 0.294.
With knock-down of GSE1, the record shows BNIP3L mRNA, set 1 = 0.0539.
After knock-down of CCAR2, the screen gave BNIP3L mRNA, set 1 = 0.092.
Depletion of BID came out at: BNIP3L mRNA, set 1 = 0.0644.
TADA2A gave BNIP3L mRNA, set 1 = 0.111.
Depletion of ZNF407 came out at: BNIP3L mRNA, set 1 = 0.226.
With knock-down of WDR74, the record shows BNIP3L mRNA, set 1 = 0.0957.
Depletion of RNF139 came out at: BNIP3L mRNA, set 1 = 0.0682.
Depletion of KCNK1 came out at: BNIP3L mRNA, set 1 = 0.218.
Depletion of SERTAD3 gave: BNIP3L mRNA, set 1 = 0.161.
NID1 gave BNIP3L mRNA, set 1 = 0.114.
STX2 gave BNIP3L mRNA, set 1 = 0.0644.
Depletion of STK32A came out at: BNIP3L mRNA, set 1 = 0.115.
Silencing of CAMK4 gave: BNIP3L mRNA, set 1 = 0.0891.
With knock-down of ZC3H10 the results were BNIP3L mRNA, set 1 = 0.127.
SETD1B scored BNIP3L mRNA, set 1 = 0.149.
After knock-down of TNFSF9 the results were BNIP3L mRNA, set 1 = 0.0904.
Knock-down of LRFN4 came out at: BNIP3L mRNA, set 1 = 0.0613.
Silencing of RABL2B resulted in: BNIP3L mRNA, set 1 = 0.11.

An excerpt of the results above:
TMEM175 — BNIP3L mRNA, set 1: 0.128
NUFIP2 — BNIP3L mRNA, set 1: 0.194
TM2D2 — BNIP3L mRNA, set 1: 0.294
GSE1 — BNIP3L mRNA, set 1: 0.0539
CCAR2 — BNIP3L mRNA, set 1: 0.092
